Reference: patent publication EP4434551A1, “METHOD FOR DIAGNOSING AND TREATING NIS-EXPRESSING CARCINOMAS AND METASTASES” (Nuske, Andreas, priority 2023, dated 2024)
At least one compound was matched to its structure with a doubt left.

System: MCF-7 cells
Experiment: iodide uptake assay ([124I]iodide cell uptake) after pre-stimulation with test substances
Format: cell-based, human
Conditions: MCF-7 cell; additional application on top of PPAR-γ and RX-receptor ligands; [124I]iodide (I-124)

CC(=O)OCC(=O)[C@@]1(O)[C@H](C)C[C@H]2[C@@H]3CCC4=CC(=O)C=C[C@]4(C)[C@@]3(F)[C@@H](O)C[C@@]21C [dexamethasone acetate]
NIS expression, and the associated uptake of the radioiodide: synergistic effect
